Source: the supplement of paper PMC8728848
The other results are listed elsewhere or left out.

Tests used:
Assay in all cases: glycan array binding signal (z-score within array); higher = stronger binding
Settings in all cases: glycan notation: IUPAC condensed, linker removed
[1] = target: Neu5Ac(a2-3)Gal(b1-3)GalNAc(b1-4)[Neu5Ac(a2-8)Neu5Ac(a2-3)]Gal(b1-4)Glc
Outline: (§1)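 From the Consortium for Functional Glycomics database, 3228 arrays were curated, keeping only those whose protein sequence was available. Binding is given as a within-array Z-score averaged across arrays sharing a protein sequence and across linkers. Negative Z-scores can be read as non-binding.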

[2] = target: Neu5Ac(a2-3)Gal(b1-3)GalNAc6S
Outline: as §1

[3] = target: Neu5Ac(a2-3)Gal(b1-3)GlcNAc
Outline: as §1

[4] = target: Neu5Ac(a2-3)Gal(b1-3)GlcNAc(b1-2)Man
Outline: as §1

[5] = target: Neu5Ac(a2-3)Gal(b1-3)GlcNAc(b1-2)Man(a1-3)[GlcNAc(b1-4)][Neu5Ac(a2-3)Gal(b1-3)GlcNAc(b1-2)Man(a1-6)]Man(b1-4)GlcNAc(b1-4)GlcNAc
Outline: as §1

[6] = target: Neu5Ac(a2-3)Gal(b1-3)GlcNAc(b1-2)Man(a1-3)[Neu5Ac(a2-3)Gal(b1-3)GlcNAc(b1-2)Man(a1-6)]Man(b1-4)GlcNAc(b1-4)GlcNAc
Outline: as §1

[7] = target: Neu5Ac(a2-3)Gal(b1-3)GlcNAc(b1-2)[Neu5Ac(a2-3)Gal(b1-3)GlcNAc(b1-4)]Man(a1-6)[Neu5Ac(a2-3)Gal(b1-3)GlcNAc(b1-2)Man(a1-3)]Man(b1-4)GlcNAc(b1-4)GlcNAc
Outline: as §1

[8] = target: Neu5Ac(a2-3)Gal(b1-3)GlcNAc(b1-3)Gal(b1-3)GlcNAc
Outline: as §1

[9] = target: Neu5Ac(a2-3)Gal(b1-3)GlcNAc(b1-3)Gal(b1-4)GlcNAc
Outline: as §1

[10] = target: Neu5Ac(a2-3)Gal(b1-3)GlcNAc(b1-3)GalNAc
Outline: as §1

[11] = target: Neu5Ac(a2-3)Gal(b1-3)GlcNAc(b1-6)GalNAc
Outline: as §1

[12] = target: Neu5Ac(a2-3)Gal(b1-3)GlcNAc6S
Outline: as §1

[13] = target: Neu5Ac(a2-3)Gal(b1-3)[Fuc(a1-4)]GlcNAc
Outline: as §1

[14] = target: Neu5Ac(a2-3)Gal(b1-3)[Fuc(a1-4)]GlcNAc(b1-3)Gal(b1-3)[Fuc(a1-4)]GlcNAc
Outline: as §1

[15] = target: Neu5Ac(a2-3)Gal(b1-3)[Fuc(a1-4)]GlcNAc(b1-3)Gal(b1-4)[Fuc(a1-3)]GlcNAc
Outline: as §1

[16] = target: Neu5Ac(a2-3)Gal(b1-3)[GlcNAc(b1-6)]GalNAc
Outline: as §1

[17] = target: Neu5Ac(a2-3)Gal(b1-3)[Neu5Ac(a2-3)Gal(b1-4)]GlcNAc
Outline: as §1

[18] = target: Neu5Ac(a2-3)Gal(b1-3)[Neu5Ac(a2-6)]GalNAc
Outline: as §1

[19] = target: Neu5Ac(a2-3)Gal(b1-3)[Neu5Ac(a2-6)]GlcNAc(b1-3)[Fuc(a1-3)[Gal(b1-4)]GlcNAc(b1-6)]Gal(b1-4)Glc
Outline: as §1

[20] = target: Neu5Ac(a2-3)Gal(b1-3)]Neu5Ac(a2-3)Gal(b1-4)]GlcNAc
Outline: as §1

Neu5Ac(a2-3)Gal(b1-4)Glc = target: Neu5Ac(a2-3)Gal(b1-4)Glc
Outline: as §1

[21] = target: Neu5Ac(a2-3)Gal(b1-4)GlcNAc
Outline: as §1

[22] = target: Neu5Ac(a2-3)Gal(b1-4)GlcNAc(b1-2)Man
Outline: as §1

[23] = target: Neu5Ac(a2-3)Gal(b1-4)GlcNAc(b1-2)Man(a1-3)[GlcNAc(b1-4)][Neu5Ac(a2-3)Gal(b1-4)GlcNAc(b1-2)Man(a1-6)]Man(b1-4)GlcNAc(b1-4)GlcNAc
Outline: as §1

[24] = target: Neu5Ac(a2-3)Gal(b1-4)GlcNAc(b1-2)Man(a1-3)[Neu5Ac(a2-3)Gal(b1-4)GlcNAc(b1-2)Man(a1-6)]Man(b1-4)GlcNAc(b1-4)GlcNAc
Outline: as §1

[25] = target: Neu5Ac(a2-3)Gal(b1-4)GlcNAc(b1-2)Man(a1-3)[Neu5Ac(a2-3)Gal(b1-4)GlcNAc(b1-2)Man(a1-6)]Man(b1-4)GlcNAc(b1-4)[Fuc(a1-6)]GlcNAc
Outline: as §1

[26] = target: Neu5Ac(a2-3)Gal(b1-4)GlcNAc(b1-2)Man(a1-3)[Neu5Ac(a2-6)Gal(b1-4)GlcNAc(b1-2)Man(a1-6)]Man(b1-4)GlcNAc(b1-4)GlcNAc
Outline: as §1

[27] = target: Neu5Ac(a2-3)Gal(b1-4)GlcNAc(b1-2)[Neu5Ac(a2-3)Gal(b1-4)GlcNAc(b1-4)]Man(a1-3)[GlcNAc(b1-4)][Neu5Ac(a2-3)Gal(b1-4)GlcNAc(b1-2)[Neu5Ac(a2-3)Gal(b1-4)GlcNAc(b1-6)]Man(a1-6)]Man(b1-4)GlcNAc(b1-4)GlcNAc
Outline: as §1

[28] = target: Neu5Ac(a2-3)Gal(b1-4)GlcNAc(b1-2)[Neu5Ac(a2-3)Gal(b1-4)GlcNAc(b1-4)]Man(a1-3)[GlcNAc(b1-4)][Neu5Ac(a2-3)Gal(b1-4)GlcNAc(b1-4)Man(a1-6)]Man(b1-4)GlcNAc(b1-4)GlcNAc
Outline: as §1

[29] = target: Neu5Ac(a2-3)Gal(b1-4)GlcNAc(b1-2)[Neu5Ac(a2-3)Gal(b1-4)GlcNAc(b1-6)]Man(a1-6)[Neu5Ac(a2-3)Gal(b1-4)GlcNAc(b1-2)Man(a1-3)][GlcNAc(b1-4)]Man(b1-4)GlcNAc(b1-4)GlcNAc
Outline: as §1

[30] = target: Neu5Ac(a2-3)Gal(b1-4)GlcNAc(b1-3)Gal
Outline: as §1

[31] = target: Neu5Ac(a2-3)Gal(b1-4)GlcNAc(b1-3)Gal(b1-3)GlcNAc
Outline: as §1

[32] = target: Neu5Ac(a2-3)Gal(b1-4)GlcNAc(b1-3)Gal(b1-4)GlcNAc
Outline: as §1

[33] = target: Neu5Ac(a2-3)Gal(b1-4)GlcNAc(b1-3)Gal(b1-4)GlcNAc(b1-2)Man(a1-3)[Neu5Ac(a2-3)Gal(b1-4)GlcNAc(b1-3)Gal(b1-4)GlcNAc(b1-2)Man(a1-6)]Man(b1-4)GlcNAc(b1-4)GlcNAc
Outline: as §1

[34] = target: Neu5Ac(a2-3)Gal(b1-4)GlcNAc(b1-3)Gal(b1-4)GlcNAc(b1-3)Gal(b1-4)GlcNAc
Outline: as §1

[35] = target: Neu5Ac(a2-3)Gal(b1-4)GlcNAc(b1-3)Gal(b1-4)GlcNAc(b1-3)Gal(b1-4)GlcNAc(b1-2)Man(a1-3)[Neu5Ac(a2-3)Gal(b1-4)GlcNAc(b1-3)Gal(b1-4)GlcNAc(b1-3)Gal(b1-4)GlcNAc(b1-2)Man(a1-6)]GalNAc
Outline: as §1

[36] = target: Neu5Ac(a2-3)Gal(b1-4)GlcNAc(b1-3)Gal(b1-4)GlcNAc(b1-3)GalNAc
Outline: as §1

[37] = target: Neu5Ac(a2-3)Gal(b1-4)GlcNAc(b1-3)Gal(b1-4)GlcNAc(b1-3)[Neu5Ac(a2-3)Gal(b1-4)GlcNAc(b1-3)Gal(b1-4)GlcNAc(b1-6)]GalNAc
Outline: as §1

[38] = target: Neu5Ac(a2-3)Gal(b1-4)GlcNAc(b1-3)Gal(b1-4)GlcNAc(b1-6)[Gal(b1-3)]GalNAc
Outline: as §1

[39] = target: Neu5Ac(a2-3)Gal(b1-4)GlcNAc(b1-3)Gal(b1-4)[Fuc(a1-3)]GlcNAc
Outline: as §1

[40] = target: Neu5Ac(a2-3)Gal(b1-4)GlcNAc(b1-3)GalNAc
Outline: as §1

[41] = target: Neu5Ac(a2-3)Gal(b1-4)GlcNAc(b1-3)[Neu5Ac(a2-3)Gal(b1-4)GlcNAc(b1-6)]GalNAc
Outline: as §1

[42] = target: Neu5Ac(a2-3)Gal(b1-4)GlcNAc(b1-6)GalNAc
Outline: as §1

[43] = target: Neu5Ac(a2-3)Gal(b1-4)GlcNAc(b1-6)[Gal(b1-3)]GalNAc
Outline: as §1

[44] = target: Neu5Ac(a2-3)Gal(b1-4)GlcNAc(b1-6)[Neu5Ac(a2-3)Gal(b1-3)]GalNAc
Outline: as §1

B1: Endo180d1-D4 (Homo sapiens), Q9UBG0 (protein)
chain: MGPGRPAPAPWPRHLLRCVLLLGCLHLGRPGAPGDAALPEPNVFLIFSHGLQGCLEAQGGQVRVTPACNTSLPAQRWKWVSRNRLFNLGTMQCLGTGWPGTNTTASLGMYECDREALNLRWHCRTLGDQLSLLLGARTSNISKPGTLERGDQTRSGQWRIYGSEEDLCALPYHEVYTIQGNSHGKPCTIPFKYDNQWFHGCTSTGREDGHLWCATTQDYGKDERWGFCPIKSNDCETFWDKDQLTDSCYQFNFQSTLSWREAWASCEQQGADLLSITEIHEQTYINGLLTGYSSTLWIGLNDLDTSGGWQWSDNSPLKYLNWESDQPDNPSEENCGVIRTESSGGWQNRDCSIALPYVCKKKPNATAEPTPPDRWANVKVECEPSWQPFQGHCYRLQAEKRSWQESKKACLRGGGDLVSIHSMAELEFITKQIKQEVEELWIGLNDLKLQMNFEWSDGSLVSFTHWHPFEPNNFRDSLEDCVTIWGPEGRWNDSPCNQSLPSICKKAGQLSQGAAEEDHGCRKGWTWHSPSCYWLGEDQVTYSEARRLCTDHGSQLVTITNRFEQAFVSSLIYNWEGEYFWTALQDLNSTGSFFWLSGDEVMYTHWNRDQPGYSRGGCVALATGSAMGLWEVKNCTSFRARYICRQSLGTPVTPELPGPDPTPSLTGSCPQGWASDTKLRYCYKVFSSERLQDKKSWVQAQGACQELGAQLLSLASYEEEHFVANMLNKIFGESEPEIHEQHWFWIGLNRRDPRGGQSWRWSDGVGFSYHNFDRSRHDDDDIRGCAVLDLASLQWVAMQCDTQLDWICKIPRGTDVREPDDSPQGRREWLRFQEAEYKFFEHHSTWAQAQRICTWFQAELTSVHSQAELDFLSHNLQKFSRAQEQHWWIGLHTSESDGRFRWTDGSIINFISWAPGKPRPVGKDKKCVYMTASREDWGDQRCLTALPYICKRSNVTKETQPPDLPTTALGGCPSDWIQFLNKCFQVQGQEPQSRVKWSEAQFSCEQQEAQLVTITNPLEQAFITASLPNVTFDLWIGLHASQRDFQWVEQEPLMYANWAPGEPSGPSPAPSGNKPTSCAVVLHSPSAHFTGRWDDRSCTEETHGFICQKGTDPSLSPSPAALPPAPGTELSYLNGTFRLLQKPLRWHDALLLCESHNASLAYVPDPYTQAFLTQAARGLRTPLWIGLAGEEGSRRYSWVSEEPLNYVGWQDGEPQQPGGCTYVDVDGAWRTTSCDTKLQGAVCGVSSGPPPPRRISYHGSCPQGLADSAWIPFREHCYSFHMELLLGHKEARQRCQRAGGAVLSILDEMENVFVWEHLQSYEGQSRGAWLGMNFNPKGGTLVWQDNTAVNYSNWGPPGLGPSMLSHNSCYWIQSNSGLWRPGACTNITMGVVCKLPRAEQSSFSPSALPENPAALVVVLMAVLLLLALLTAALILYRRRQSIERGAFEGARYSRSSSSPTEATEKNILVSDMEMNEQQE
glycan array binding signal (z-score) [1]: -1.04 | glycan array binding signal (z-score) [2]: 0.081 | glycan array binding signal (z-score) [3]: 0.541 | glycan array binding signal (z-score) [4]: -2.55 | glycan array binding signal (z-score) [5]: 0.536 | glycan array binding signal (z-score) [6]: 0.646 | glycan array binding signal (z-score) [7]: -0.652 | glycan array binding signal (z-score) [8]: -2.73 | glycan array binding signal (z-score) [9]: 0.579 | glycan array binding signal (z-score) [10]: -0.015 | glycan array binding signal (z-score) [11]: 0.64 | glycan array binding signal (z-score) [12]: -0.46 | glycan array binding signal (z-score) [13]: 0.151 | glycan array binding signal (z-score) [14]: -1.25 | glycan array binding signal (z-score) [15]: 0.222 | glycan array binding signal (z-score) [16]: -0.439 | glycan array binding signal (z-score) [17]: -0.174 | glycan array binding signal (z-score) [18]: -0.517 | glycan array binding signal (z-score) [19]: -0.16 | glycan array binding signal (z-score) [20]: -0.234 | glycan array binding signal (z-score) (Neu5Ac(a2-3)Gal(b1-4)Glc): 0.11 | glycan array binding signal (z-score) [21]: -0.314 | glycan array binding signal (z-score) [22]: -0.693 | glycan array binding signal (z-score) [23]: 0.657 | glycan array binding signal (z-score) [24]: -0.688 | glycan array binding signal (z-score) [25]: 1.03 | glycan array binding signal (z-score) [26]: 1.42 | glycan array binding signal (z-score) [27]: -0.801 | glycan array binding signal (z-score) [28]: 0.456 | glycan array binding signal (z-score) [29]: -0.584 | glycan array binding signal (z-score) [30]: 0.249 | glycan array binding signal (z-score) [31]: 1.62 | glycan array binding signal (z-score) [32]: -0.324 | glycan array binding signal (z-score) [33]: 0.637 | glycan array binding signal (z-score) [34]: -0.346 | glycan array binding signal (z-score) [35]: 0.871 | glycan array binding signal (z-score) [36]: -0.597 | glycan array binding signal (z-score) [37]: 0.933 | glycan array binding signal (z-score) [38]: -1.2 | glycan array binding signal (z-score) [39]: -0.946 | glycan array binding signal (z-score) [40]: -0.221 | glycan array binding signal (z-score) [41]: 0.176 | glycan array binding signal (z-score) [42]: -0.813 | glycan array binding signal (z-score) [43]: 0.731 | glycan array binding signal (z-score) [44]: 0.222
